These are yes or no findings as the source states them, for the method shown. In cells and extracts the contact can be indirect. These calls come from enrichment with a bait or labelling near it, and not all partners need be listed. For some assays here: No binding means not detected with the bait.

This passage reports binding results from publication PMC10058050, “A Bitter Taste Receptor as a Novel Molecular Target on Cancer-Associated Fibroblasts in Pancreatic Ductal Adenocarcinoma” (Pharmaceuticals, 2023).

Experiment [1] addresses T1, phage displaying APPIMSV (phAPPIMSV).
T1 sequence (peptide): APPIMSV
As to the kind of experiment: affinity purification with mass spectrometry; biotinylated phage carrying sulfo-SAND incubated with CAFs as bait, cross-linked by UV on ice, cells lysed, streptavidin agarose pull-down, SDS-PAGE with silver staining, unique band excised for MS/MS; only the target purified.

Experiment [2] has as its target T2, phage displaying HTTIPKV (phHTTIPKV).
T2 sequence (peptide): HTTIPKV
Described as above.

B1: taste receptor type 2 member 9 (TAS2R9), endogenous on PDAC patient-derived CAFs (receptor, UniProt Q9NYW1 1-312)
chain: MPSAIEAIYIILIAGELTIGIWGNGFIVLVNCIDWLKRRDISLIDIILISLAISRICLLCVISLDGFFMLLFPGTYGNSVLVSIVNVVWTFANNSSLWFTSCLSIFYLLKIANISHPFFFWLKLKINKVMLAILLGSFLISLIISVPKNDDMWYHLFKVSHEENITWKFKVSKIPGTFKQLTLNLGVMVPFILCLISFFLLLFSLVRHTKQIRLHATGFRDPSTEAHMRAIKAVIIFLLLLIVYYPVFLVMTSSALIPQGKLVLMIGDIVTVIFPSSHSFILIMGNSKLREAFLKMLRFVKCFLRRRKPFVP
Turning to B1, the binding entry is “no binding” in experiment [1] and “binds” in experiment [2].
